At least one compound was matched to its structure with a doubt left. Some results were stated once for a whole list of compounds, not compound by compound.
Tests used:
PLP-induced EAE = assay: Fingolimod plus PLP vector in relapsing-remitting PLP-induced EAE; type: in vivo, SJL mice; details: fingolimod from initial remittance; vector 2 weeks later; fingolimod 2 further weeks
MOG35-55-induced EAE = assay: AAV.MOG plus daily oral fingolimod in MOG35-55 EAE, fingolimod stopped at day 24; type: in vivo, C57BL/6 mice
[1] = test system: established MOG35-55-induced EAE; assay: Therapeutic AAV8.MOG with transient rapamycin immunosuppression in established EAE; type: in vivo, C57BL/6 mice
Method: Vector Administration. […] Two weeks later, EAE was induced. To evaluate the therapeutic effect of vector administration, EAE was induced first in 9- to 11-week-old mice before the administration of vectors. As mice reached the targeted/indicated severity of disease they were injected with […] of AAV8.MOG or control vector (scAAV.GFP or sham/PBS) via the tail vein. Rapamycin (LC Laboratories, Woburn, MA, USA) was dissolved in a vehicle solution containing (0.2% w/v) carboxymethyl-cellulose sodium salt (C-5013) and (0.25% v/v) polysorbate-80 (P-8074) (Sigma, St. Louis, MO, USA) in distilled water and stored at 4° C. protected from light according to the manufacturer’s instructions. Rapamycin (5 mg/kg) was given i.p. as indicated for a total of three and five doses beginning on the day of vector administration.
To test the hypothesis, the experimental parameters that previously produced the smallest degree of disease reversal were reestablished (FIG. 23C). EAE was induced and AAV8.MOG treatment was withheld until mice developed complete tail paralysis with hind-leg paresis (MCS: 1.4 ± 0.1, combined). Immediately after being treated with either AAV8.MOG or PBS/control, all mice received an intraperitoneal injection of rapamycin (5 mg/kg). Subsequently, mice received two additional doses of rapamycin (5 mg/kg) 48 hr apart (FIGS. 24). As expected, EAE disease progressed quickly and both groups of mice developed severe neurological deficits and paralysis (peak MCS: 2.9-3.0) (FIG. 24A). […] In contrast, neurological deficits in AAV8.MOG-treated mice continued to decrease, and all but one animal (90%) achieved complete remission (final MCS: 0.5 ± 0.3) (FIG. 24A).
Next, the effectiveness of the combined immunotherapy in late and end-stage EAE disease was tested. […] Remarkably, mice that received the AAV8.MOG/rapamycin immunotherapy, 71% (FIG. 24B) and 80% (FIG. 24C), respectively, responded to the treatment and went into near-complete remission (MCS: […]) by day ~30.

| Compound | disease course after fingolimod treatment was stopped (PLP-induced EAE) | recovery from EAE symptoms during fingolimod treatment (MOG35-55-induced EAE; daily oral gavage from first clinical sign, by day 20) | disease course after fingolimod treatment was stopped (MOG35-55-induced EAE; fingolimod discontinued at day 24) | peak MCS ([1]; treated at MCS 1.4 ± 0.1, all mice rapamycin 5 mg/kg i.p. x3, 48 hr apart) | time to signs of remission (sustained reduction in MCS ≥1) after rapamycin ([1]; treated at MCS 1.4 ± 0.1, rapamycin 5 mg/kg i.p.) | disease course after transient response to rapamycin ([1]; treated at MCS 3.0 or 3.5) |
| --- | --- | --- | --- | --- | --- | --- |
| CCCCCCCCc1ccc(CCC(N)(CO)CO)cc1 [fingolimod] | quickly developed severe EAE disease | had recovered from EAE symptoms | relapsed and developed severe EAE | – | – | – |
| CO[C@H]1C[C@@H]2CC[C@@H](C)[C@@](O)(O2)C(=O)C(=O)N2CCCC[C@H]2C(=O)O[C@H]([C@H](C)C[C@@H]2CC[C@@H](O)[C@H](OC)C2)CC(=O)[C@H](C)/C=C(\C)[C@@H](O)[C@@H](OC)C(=O)[C@H](C)C[C@H](C)/C=C/C=C/C=C/1C [rapamycin] | – | – | – | 2.9-3.0 | ≤ 72 h | relapsed into severe paralyzing or fatal EAE disease |
